Laboratory results as given in article doi:10.1101/2020.02.02.931204.
Results are given in words; binding and its absence hold for the method and conditions named. Binding seen in cells or lysates may run through a third protein. A result given as binding can be weak or reduced; the word gives no strength. Where a sequence is shown, tags or fusion partners need not be part of it.

Biological target: T1, HA-SFPQ (human) (UniProt P23246)
T1 sequence: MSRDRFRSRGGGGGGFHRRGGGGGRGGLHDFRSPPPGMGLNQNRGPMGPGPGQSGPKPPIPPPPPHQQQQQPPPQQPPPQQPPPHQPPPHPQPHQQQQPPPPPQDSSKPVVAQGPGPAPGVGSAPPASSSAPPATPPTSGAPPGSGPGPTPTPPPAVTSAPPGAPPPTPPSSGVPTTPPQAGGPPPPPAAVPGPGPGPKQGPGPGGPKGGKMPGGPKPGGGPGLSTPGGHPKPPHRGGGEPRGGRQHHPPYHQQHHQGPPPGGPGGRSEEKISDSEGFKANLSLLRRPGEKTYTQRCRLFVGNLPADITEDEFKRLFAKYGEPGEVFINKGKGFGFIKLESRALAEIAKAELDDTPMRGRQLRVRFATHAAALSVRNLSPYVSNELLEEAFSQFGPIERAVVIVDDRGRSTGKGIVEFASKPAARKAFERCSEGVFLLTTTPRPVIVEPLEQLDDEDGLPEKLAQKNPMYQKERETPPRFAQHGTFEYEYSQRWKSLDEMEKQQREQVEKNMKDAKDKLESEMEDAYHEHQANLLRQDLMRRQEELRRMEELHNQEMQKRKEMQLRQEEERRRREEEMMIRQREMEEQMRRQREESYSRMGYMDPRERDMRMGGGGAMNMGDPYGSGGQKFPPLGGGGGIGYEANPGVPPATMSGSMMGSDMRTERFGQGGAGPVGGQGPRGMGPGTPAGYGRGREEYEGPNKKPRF
Experiment: co-IP

| binding | Substance |
| --- | --- |
| binds weakly | FLAG-KIF5A ΔTail (mouse) (domain or fragment) |
| binds | KLC1-Myc N343S (mouse) |
